Test results: PMC11186368

T1: Cysteine-rich angiogenic inducer 61 (CYR61), endogenous (human (endogenous in HeLa, MDA-MB-231, H1299)) (UniProt O00622)
T1 sequence: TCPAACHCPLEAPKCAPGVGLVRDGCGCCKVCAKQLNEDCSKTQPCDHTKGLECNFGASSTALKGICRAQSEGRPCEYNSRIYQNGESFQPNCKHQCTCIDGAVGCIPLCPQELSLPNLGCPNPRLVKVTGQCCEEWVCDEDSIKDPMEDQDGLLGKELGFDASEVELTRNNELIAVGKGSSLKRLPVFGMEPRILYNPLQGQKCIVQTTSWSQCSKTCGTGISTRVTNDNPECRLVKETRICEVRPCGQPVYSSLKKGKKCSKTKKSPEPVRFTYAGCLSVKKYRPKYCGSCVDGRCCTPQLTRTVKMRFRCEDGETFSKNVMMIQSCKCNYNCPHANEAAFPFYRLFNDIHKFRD


Experiments:
[1] = molecular target: T1, Cysteine-rich angiogenic inducer 61 (CYR61), endogenous (human (endogenous in HeLa, MDA-MB-231, H1299)); assay: co-IP; endogenous proteins; cell lysates (RIPA buffer) of HeLa, for tubulins also MDA-MB-231 and H1299, immunoprecipitated with antibody or IgG overnight at 4 °C, washed with NETN buffer, immunoblot
[2] = molecular target: PLK1 C-terminal polo-box domain (PBD) alone (human); assay: co-IP; HeLa cells transfected with CYR61 and PLK1 wild type, deletion mutants or single domains; anti-Myc (Figure 3G) or anti-Flag (Figure 3H) beads; immunoblot
[3] = molecular target: PLK1 N-terminal kinase domain (KD) alone (human); assay: as above

Row | binding [1] | binding [2] | binding [3] | Molecule
1 | binds |  |  | α-tubulin, endogenous
2 | binds |  |  | β-tubulin, endogenous
3 |  | binds | binds | Myc-CYR61 wild type (HeLa) (protein, UniProt O00622 25-381) TCPAACHCPLEAPKCAPGVGLVRDGCGCCKVCAKQLNEDCSKTQPCDHTKGLECNFGASSTALKGICRAQSEGRPCEYNSRIYQNGESFQPNCKHQCTCIDGAVGCIPLCPQELSLPNLGCPNPRLVKVTGQCCEEWVCDEDSIKDPMEDQDGLLGKELGFDASEVELTRNNELIAVGKGSSLKRLPVFGMEPRILYNPLQGQKCIVQTTSWSQCSKTCGTGISTRVTNDNPECRLVKETRICEVRPCGQPVYSSLKKGKKCSKTKKSPEPVRFTYAGCLSVKKYRPKYCGSCVDGRCCTPQLTRTVKMRFRCEDGETFSKNVMMIQSCKCNYNCPHANEAAFPFYRLFNDIHKFRD

Results are given in words; binding and its absence hold for the method and conditions named. In cells and extracts the contact can be indirect. A result given as binding can be weak or reduced; the word gives no strength. For some of these results: Sequences can lack the tags named with a protein.
